Experimental data taken from paper PMC6638966, “The demethylase NMAD-1 regulates DNA replication and repair in the Caenorhabditis elegans germline” (PLoS Genetics, 2019).
No constants are given. Whether binding was seen depends on the method and setting. In cells and extracts the contact can be indirect. Here binding means that the protein was enriched with, or labelled near, the bait; the list need not be complete. Where a sequence is shown, tags or fusion partners need not be part of it.

By UniProt entry, the sequences of proteins in these tests, tags left out. Where a name states a change or a piece, a line headed by the entry shows the natural chain unless it says otherwise.
UniProt Q23670: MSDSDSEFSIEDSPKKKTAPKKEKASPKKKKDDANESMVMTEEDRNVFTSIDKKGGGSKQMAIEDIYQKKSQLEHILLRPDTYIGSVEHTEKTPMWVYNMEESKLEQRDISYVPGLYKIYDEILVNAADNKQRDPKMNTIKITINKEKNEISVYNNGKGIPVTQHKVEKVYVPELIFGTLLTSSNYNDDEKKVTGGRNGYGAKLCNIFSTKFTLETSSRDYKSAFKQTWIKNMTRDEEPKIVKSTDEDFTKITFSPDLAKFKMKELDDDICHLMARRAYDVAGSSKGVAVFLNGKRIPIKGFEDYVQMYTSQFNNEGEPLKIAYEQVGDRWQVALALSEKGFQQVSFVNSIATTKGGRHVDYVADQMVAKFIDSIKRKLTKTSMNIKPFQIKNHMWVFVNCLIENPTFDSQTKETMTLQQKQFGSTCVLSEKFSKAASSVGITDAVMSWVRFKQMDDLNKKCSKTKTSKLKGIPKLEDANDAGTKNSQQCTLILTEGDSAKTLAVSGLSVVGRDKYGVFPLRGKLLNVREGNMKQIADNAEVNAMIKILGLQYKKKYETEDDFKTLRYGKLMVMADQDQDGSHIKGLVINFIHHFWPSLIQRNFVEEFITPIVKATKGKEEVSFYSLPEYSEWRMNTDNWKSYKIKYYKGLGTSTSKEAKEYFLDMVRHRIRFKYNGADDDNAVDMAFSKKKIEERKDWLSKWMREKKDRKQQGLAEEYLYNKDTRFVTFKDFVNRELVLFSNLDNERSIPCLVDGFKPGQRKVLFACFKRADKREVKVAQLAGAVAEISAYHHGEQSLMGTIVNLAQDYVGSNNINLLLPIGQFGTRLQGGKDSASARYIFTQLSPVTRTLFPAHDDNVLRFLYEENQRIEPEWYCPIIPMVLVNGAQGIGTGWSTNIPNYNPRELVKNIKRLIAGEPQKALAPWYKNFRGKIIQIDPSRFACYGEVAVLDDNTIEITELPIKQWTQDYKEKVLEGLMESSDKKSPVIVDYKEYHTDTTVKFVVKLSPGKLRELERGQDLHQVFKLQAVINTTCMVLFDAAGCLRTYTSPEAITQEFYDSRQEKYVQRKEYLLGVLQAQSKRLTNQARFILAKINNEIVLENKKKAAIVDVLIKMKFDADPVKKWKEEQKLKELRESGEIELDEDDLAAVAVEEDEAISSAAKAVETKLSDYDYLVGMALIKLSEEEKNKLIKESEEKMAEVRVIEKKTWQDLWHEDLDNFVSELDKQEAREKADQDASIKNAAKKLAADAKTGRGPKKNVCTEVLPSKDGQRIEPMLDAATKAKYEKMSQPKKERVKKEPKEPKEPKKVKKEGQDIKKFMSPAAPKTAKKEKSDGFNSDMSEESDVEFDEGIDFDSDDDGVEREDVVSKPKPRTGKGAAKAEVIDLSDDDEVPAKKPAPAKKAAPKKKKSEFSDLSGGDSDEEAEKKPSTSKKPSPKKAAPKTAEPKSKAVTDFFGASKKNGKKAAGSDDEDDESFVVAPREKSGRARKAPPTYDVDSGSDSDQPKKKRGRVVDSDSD
UniProt Q86DC2: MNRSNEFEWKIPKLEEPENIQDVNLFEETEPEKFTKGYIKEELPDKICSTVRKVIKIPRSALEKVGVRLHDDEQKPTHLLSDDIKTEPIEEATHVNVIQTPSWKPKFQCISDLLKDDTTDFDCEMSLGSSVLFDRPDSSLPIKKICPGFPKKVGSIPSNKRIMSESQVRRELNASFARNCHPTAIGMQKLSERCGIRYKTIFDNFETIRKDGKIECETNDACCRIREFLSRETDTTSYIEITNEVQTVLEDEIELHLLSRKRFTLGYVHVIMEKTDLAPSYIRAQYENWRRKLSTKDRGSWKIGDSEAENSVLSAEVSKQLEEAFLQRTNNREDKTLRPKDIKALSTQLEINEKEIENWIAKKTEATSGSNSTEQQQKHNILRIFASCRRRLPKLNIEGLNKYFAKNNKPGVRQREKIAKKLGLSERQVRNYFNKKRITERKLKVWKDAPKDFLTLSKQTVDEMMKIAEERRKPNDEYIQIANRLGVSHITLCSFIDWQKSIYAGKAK
UniProt O44400: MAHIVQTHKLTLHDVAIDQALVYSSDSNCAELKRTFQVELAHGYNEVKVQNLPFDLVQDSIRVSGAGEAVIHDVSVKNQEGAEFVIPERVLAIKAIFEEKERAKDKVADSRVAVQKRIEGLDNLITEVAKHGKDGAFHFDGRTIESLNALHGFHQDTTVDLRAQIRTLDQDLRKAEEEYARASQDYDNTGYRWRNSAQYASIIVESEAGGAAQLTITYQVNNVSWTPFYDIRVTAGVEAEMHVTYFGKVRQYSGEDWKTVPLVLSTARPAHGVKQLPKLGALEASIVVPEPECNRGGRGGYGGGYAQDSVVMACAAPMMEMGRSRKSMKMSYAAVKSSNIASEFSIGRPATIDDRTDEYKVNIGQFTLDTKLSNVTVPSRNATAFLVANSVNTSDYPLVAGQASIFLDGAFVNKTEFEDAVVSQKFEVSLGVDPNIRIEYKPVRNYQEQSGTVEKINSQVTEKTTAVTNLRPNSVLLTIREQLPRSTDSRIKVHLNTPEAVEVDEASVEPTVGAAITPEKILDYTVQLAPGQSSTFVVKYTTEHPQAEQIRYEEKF

Molecular target: T1, Flag-tagged GFP::NMAD-1 fusion protein (gfp::3xflag::nmad-1 transgene) (C. elegans) (UniProt Q8MNT9)
T1 sequence: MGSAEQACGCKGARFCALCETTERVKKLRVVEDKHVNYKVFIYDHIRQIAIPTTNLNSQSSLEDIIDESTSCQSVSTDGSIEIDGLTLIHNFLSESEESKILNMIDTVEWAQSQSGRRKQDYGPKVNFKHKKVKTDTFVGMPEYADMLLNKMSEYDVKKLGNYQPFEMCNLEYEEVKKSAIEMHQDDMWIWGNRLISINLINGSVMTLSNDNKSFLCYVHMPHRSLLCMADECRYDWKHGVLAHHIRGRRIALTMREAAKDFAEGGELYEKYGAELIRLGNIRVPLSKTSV
Test: affinity purification with mass spectrometry; GFP and Flag IP (control IgG IP) from extract of the GFP::3xFLAG::NMAD-1 strain, mixed stage worms; high-salt buffer (20 mM HEPES pH 7.0, 200 mM NaCl), Protein A Dynabeads, 3 h at 4 °C

| binding | Substance |
| --- | --- |
| binds | TOP-2 (endogenous) (from UniProt Q23670 1-1520) (enzyme) |
| binds | CEH-93 (endogenous) (from UniProt Q86DC2) |
| binds | F37C4.5 (endogenous) (from UniProt O44400) |
